Data set [1] deals with doxorubicin-resistant A549 (A549/DOX) lung cancer cells. Briefly: MTT antiproliferative assay, A549/DOX. It counts as cell-based. The settings on record: IC50(A549/DOX)/IC50(A549). The procedure: (§1) The antiproliferative activity of 1,2,3-triazole tethered dihydroartemisinin-isatin hybrids 8a-c and 9a-k against A549, multidrug-resistant A549/DOX and A549/DDP lung cancer cell lines as well as cytotoxicity towards mouse embryonic fibroblast cells NIH/3T3 were assessed by 3-(4,5-dimethylthiazol-2-yl)-2,5-diphenyltetrazolium bromide (MTT) assay, and half maximal inhibitory concentration (IC50) values were listed in Table 2. A549, A549/DOX, and A549/DDP lung cancer cells (2 × 10^3) were plated in each well of a 96-well plate and were allowed to adhere and spread for 24 h. The 1,2,3-triazole tethered dihydroartemisinin-isatin hybrids 8a-c and 9a-k were added to a final concentration of 100 μM, and the cells were cultured for 24 h at 37°C. 3-(4,5-dimethyl-2-thiazolyl)-2,5-diphenyltetrazolium bromide (MTT) solution (10 µL) was added to each well, and the cultures were incubated for an additional 4 h. A further 100 µL of […] was added and incubation continued overnight. The absorbance at 540 nm was determined in each well with a 96-well plate reader. The growth of the treated cells was compared with that of untreated cells.
(Formazan colour is commonly taken as a measure of viable cells.)

The subject of data set [2] is cisplatin-resistant A549 (A549/DDP) lung cancer cells. Kind of data set: MTT antiproliferative assay, A549/DDP. The settings on record: for RI2 (resistance index): IC50(A549/DDP)/IC50(A549); for folds more potent than cisplatin against A549/DDP: IC50 cisplatin / IC50 hybrid, A549/DDP cells. It counts as cell-based. The procedure: as §1

SMILES strings stand for the structures. Some ranges recur; such a range may be that of the whole group of compounds.

As to `CCON=C1C(=O)N(CCn2cc(COC3O[C@@H]4O[C@@]5(C)CC[C@H]6[C@H](C)CC[C@@H]([C@H]3C)[C@@]46OO5)nn2)c2ccccc21` (stereo partly drawn) [9d, 3-(ethoxyimino)-1-(2-(4-((((3R,5aS,6R,8aS,9R,12R,12aR)-3,6,9-trimethyldecahydro-12H-3,12-epoxy[1,2]dioxepino[4,3-i]isochromen-10-yl)oxy)methyl)-1H-1,2,3-triazol-1-yl)ethyl)indolin-2-one], the “RI1 (resistance index)” value in data set [1] came to 0.81. Besides, the “RI2 (resistance index)” value in data set [2] is 1.32.

In the case of `COc1ccc2c(c1)C(=NOCc1ccccc1)C(=O)N2CCn1cc(COC2O[C@@H]3O[C@@]4(C)CC[C@H]5[C@H](C)CC[C@@H]([C@H]2C)[C@@]35OO4)nn1` (stereo partly drawn) [9h, 3-((benzyloxy)imino)-5-methoxy-1-(2-(4-((((3R,5aS,6R,8aS,9R,12R,12aR)-3,6,9-trimethyldecahydro-12H-3,12-epoxy[1,2]dioxepino[4,3-i]isochromen-10-yl)oxy)methyl)-1H-1,2,3-triazol-1-yl)ethyl)indolin-2-one], the “RI1 (resistance index)” value in data set [1] came to 1.74. In data set [2], the “RI2 (resistance index)” value is 1.33.

For `CON=C1C(=O)N(CCn2cc(COC3O[C@@H]4O[C@@]5(C)CC[C@H]6[C@H](C)CC[C@@H]([C@H]3C)[C@@]46OO5)nn2)c2ccccc21` (stereo partly drawn) [9c, 3-(methoxyimino)-1-(2-(4-((((3R,5aS,6R,8aS,9R,12R,12aR)-3,6,9-trimethyldecahydro-12H-3,12-epoxy[1,2]dioxepino[4,3-i]isochromen-10-yl)oxy)methyl)-1H-1,2,3-triazol-1-yl)ethyl)indolin-2-one], the “RI1 (resistance index)” value in data set [1] amounted to 0.86. For the same molecule, in data set [2], the “RI2 (resistance index)” value was 1.20.

For `C[C@@H]1CC[C@H]2[C@@H](C)C(OCc3cn(CCN4C(=O)C(=NOCc5ccccc5)c5ccccc54)nn3)O[C@@H]3O[C@@]4(C)CC[C@@H]1[C@]32OO4` (stereo partly drawn) [9e, 3-((benzyloxy)imino)-1-(2-(4-((((3R,5aS,6R,8aS,9R,12R,12aR)-3,6,9-trimethyldecahydro-12H-3,12-epoxy[1,2]dioxepino[4,3-i]isochromen-10-yl)oxy)methyl)-1H-1,2,3-triazol-1-yl)ethyl)indolin-2-one], in data set [1], the “RI1 (resistance index)” value was 1.92. Further, the “RI2 (resistance index)” value in data set [2] turned out to be 1.83.

Consider `CCON=C1C(=O)N(CCn2cc(COC3O[C@@H]4O[C@@]5(C)CC[C@H]6[C@H](C)CC[C@@H]([C@H]3C)[C@@]46OO5)nn2)c2ccc(OC)cc21` (stereo partly drawn) [9g, 3-(ethoxyimino)-5-methoxy-1-(2-(4-((((3R,5aS,6R,8aS,9R,12R,12aR)-3,6,9-trimethyldecahydro-12H-3,12-epoxy[1,2]dioxepino[4,3-i]isochromen-10-yl)oxy)methyl)-1H-1,2,3-triazol-1-yl)ethyl)indolin-2-one], for which the “RI1 (resistance index)” value in data set [1] turned out to be 0.61. The “RI2 (resistance index)” value in data set [2] worked out at 0.84.

Turning to `N.N.[Cl][Pt][Cl]` [cisplatin, reference compound], in data set [1], the “RI1 (resistance index)” value was 2.10. The “RI2 (resistance index)” value in data set [2] was determined as 7.13.

On to `C[C@@H]1CC[C@H]2[C@@H](C)C(OCc3cn(CCN4C(=O)C(=NO)c5ccccc54)nn3)O[C@@H]3O[C@@]4(C)CC[C@@H]1[C@]32OO4` (stereo partly drawn) [9b, 3-(hydroxyimino)-1-(2-(4-((((3R,5aS,6R,8aS,9R,12R,12aR)-3,6,9-trimethyldecahydro-12H-3,12-epoxy[1,2]dioxepino[4,3-i]isochromen-10-yl)oxy)methyl)-1H-1,2,3-triazol-1-yl)ethyl)indolin-2-one], for which, in data set [1], the “RI1 (resistance index)” value came to 2.18. Besides, the “RI2 (resistance index)” value in data set [2] amounted to 2.52.

In the case of `C[C@@H]1CC[C@H]2[C@@H](C)C(OCc3cn(CCN4C(=O)C(=O)c5ccccc54)nn3)O[C@@H]3O[C@@]4(C)CC[C@@H]1[C@]32OO4` (stereo partly drawn) [8a, 1-(2-(4-((((3R,5aS,6R,8aS,9R,12R,12aR)-3,6,9-trimethyldecahydro-12H-3,12-epoxy[1,2]dioxepino[4,3-i]isochromen-10-yl)oxy)methyl)-1H-1,2,3-triazol-1-yl)ethyl)indoline-2,3-dione], the “RI1 (resistance index)” value in data set [1] is 1.45. In data set [2], the “RI2 (resistance index)” value is recorded as 1.29 and the “folds more potent than cisplatin against A549/DDP” value was 4.6–7.6 folds.

On to `CCON=C1C(=O)N(CCn2cc(COC3O[C@@H]4O[C@@]5(C)CC[C@H]6[C@H](C)CC[C@@H]([C@H]3C)[C@@]46OO5)nn2)c2ccc(F)cc21` (stereo partly drawn) [9k, 3-(ethoxyimino)-5-fluoro-1-(2-(4-((((3R,5aS,6R,8aS,9R,12R,12aR)-3,6,9-trimethyldecahydro-12H-3,12-epoxy[1,2]dioxepino[4,3-i]isochromen-10-yl)oxy)methyl)-1H-1,2,3-triazol-1-yl)ethyl)indolin-2-one], for which, in data set [1], the “RI1 (resistance index)” value amounted to 1.97. Also, in data set [2], the “RI2 (resistance index)” value is 1.82.

Turning to `C[C@H]1[C@@H](O)O[C@@H]2O[C@@]3(C)CC[C@H]4[C@H](C)CC[C@@H]1[C@@]24OO3` [DHA, Dihydroartemisinin], the “RI1 (resistance index)” value in data set [1] turned out to be 1.27. Besides, in data set [2], the “RI2 (resistance index)” value came to 1.09.

Regarding `C[C@@H]1CC[C@H]2[C@@H](C)C(OCc3cn(CCN4C(=O)C(=O)c5cc(F)ccc54)nn3)O[C@@H]3O[C@@]4(C)CC[C@@H]1[C@]32OO4` (stereo partly drawn) [8c, 5-fluoro-1-(2-(4-((((3R,5aS,6R,8aS,9R,12R,12aR)-3,6,9-trimethyldecahydro-12H-3,12-epoxy[1,2]dioxepino[4,3-i]isochromen-10-yl)oxy)methyl)-1H-1,2,3-triazol-1-yl)ethyl)indoline-2,3-dione], in data set [1], the “RI1 (resistance index)” value came out at 1.31. Moreover, in data set [2], the “RI2 (resistance index)” value came out at 1.16 and the “folds more potent than cisplatin against A549/DDP” value is on record as 4.6–7.6 folds.

As for `C[C@@H]1CC[C@H]2[C@@H](C)C(OCc3cn(CCN4C(=O)C(=NNC(N)=S)c5ccccc54)nn3)O[C@@H]3O[C@@]4(C)CC[C@@H]1[C@]32OO4` (stereo partly drawn) [9a, 2-(2-oxo-1-(2-(4-((((3R,5aS,6R,8aS,9R,12R,12aR)-3,6,9-trimethyldecahydro-12H-3,12-epoxy[1,2]dioxepino[4,3-i]isochromen-10-yl)oxy)methyl)-1H-1,2,3-triazol-1-yl)ethyl)indolin-3-ylidene)hydrazine-1-carbothioamide], the “RI1 (resistance index)” value in data set [1] worked out at 2.35. Also, the “RI2 (resistance index)” value in data set [2] is reported as 1.90.

Take `COc1ccc2c(c1)C(=O)C(=O)N2CCn1cc(COC2O[C@@H]3O[C@@]4(C)CC[C@H]5[C@H](C)CC[C@@H]([C@H]2C)[C@@]35OO4)nn1` (stereo partly drawn) [8b, 5-methoxy-1-(2-(4-((((3R,5aS,6R,8aS,9R,12R,12aR)-3,6,9-trimethyldecahydro-12H-3,12-epoxy[1,2]dioxepino[4,3-i]isochromen-10-yl)oxy)methyl)-1H-1,2,3-triazol-1-yl)ethyl)indoline-2,3-dione]: in data set [1], the “RI1 (resistance index)” value is 1.48. In addition, the “RI2 (resistance index)” value in data set [2] came to 0.90.

For the molecule `CON=C1C(=O)N(CCn2cc(COC3O[C@@H]4O[C@@]5(C)CC[C@H]6[C@H](C)CC[C@@H]([C@H]3C)[C@@]46OO5)nn2)c2ccc(F)cc21` (stereo partly drawn) [9j, 5-fluoro-3-(methoxyimino)-1-(2-(4-((((3R,5aS,6R,8aS,9R,12R,12aR)-3,6,9-trimethyldecahydro-12H-3,12-epoxy[1,2]dioxepino[4,3-i]isochromen-10-yl)oxy)methyl)-1H-1,2,3-triazol-1-yl)ethyl)indolin-2-one], in data set [1], the “RI1 (resistance index)” value was determined as 1.35. Further, the “RI2 (resistance index)” value in data set [2] amounted to 3.98.

Turning to `CON=C1C(=O)N(CCn2cc(COC3O[C@@H]4O[C@@]5(C)CC[C@H]6[C@H](C)CC[C@@H]([C@H]3C)[C@@]46OO5)nn2)c2ccc(OC)cc21` (stereo partly drawn) [9f, 5-methoxy-3-(methoxyimino)-1-(2-(4-((((3R,5aS,6R,8aS,9R,12R,12aR)-3,6,9-trimethyldecahydro-12H-3,12-epoxy[1,2]dioxepino[4,3-i]isochromen-10-yl)oxy)methyl)-1H-1,2,3-triazol-1-yl)ethyl)indolin-2-one], the “RI1 (resistance index)” value in data set [1] came to 1.22. The “RI2 (resistance index)” value in data set [2] was found to be 0.79.

As for `C[C@@H]1CC[C@H]2[C@@H](C)C(OCc3cn(CCN4C(=O)C(=NO)c5cc(F)ccc54)nn3)O[C@@H]3O[C@@]4(C)CC[C@@H]1[C@]32OO4` (stereo partly drawn) [9i, 5-fluoro-3-(hydroxyimino)-1-(2-(4-((((3R,5aS,6R,8aS,9R,12R,12aR)-3,6,9-trimethyldecahydro-12H-3,12-epoxy[1,2]dioxepino[4,3-i]isochromen-10-yl)oxy)methyl)-1H-1,2,3-triazol-1-yl)ethyl)indolin-2-one], the “RI1 (resistance index)” value in data set [1] was 1.75. In addition, in data set [2], the “RI2 (resistance index)” value was 1.57 and the “folds more potent than cisplatin against A549/DDP” value is given as 4.6–7.6 folds.

The values are drawn from publication PMC8716824, “Design, Synthesis and Anti-Lung Cancer Evaluation of 1, 2, 3-Triazole Tethered Dihydroartemisinin-Isatin Hybrids” (Frontiers in Pharmacology, 2021).
